Laboratory results from patent US20140072557A1, “MEDICINAL AGENT FOR SUPPRESSING MALIGNANT TUMOR METASTASIS” (priority 2011, published 2014).
Where a name gives a salt, the structure may show the parent alone. At least one compound was matched to its structure with a doubt left.

Tested on: mouse melanoma B16-F10
Assay: Mouse tail vein injection metastasis test, mouse melanoma B16-F10
Assay type: in vivo, mice
Settings: 20 mg/kg intraperitoneally once daily, 2 weeks
Experimental: 6-week-old male […] mice were used (purchased from Japan SLC, Inc.). Mouse melanoma B16-F10 was purchased from ATCC, and cultured in DMEM (Life Technologies Corp.) containing 10% FCS under 5% CO2 at 37° C. The cells in a subconfluent state were treated with EDTA-trypsin, centrifuged, and then suspended in serum free DMEM so as to be 5×10^6 cells/mL. The melanoma cell suspension (100 μL/mouse, 5×10^5 cells) was injected to the tail vein of the mice. The osmotic pumps used were MODEL2002 (for 14-day administration) made by ALZET (Cupertino, Calif,.).
Mice into which an osmotic pump containing 0.9% physiological saline was subcutaneously implanted in the back were assigned to the control group. Similarly, an osmotic pump containing hANP prepared for administration at 0.5 μg/kg/min was subcutaneously implanted into each mouse in the ANP group, an osmotic pump containing mouse BNP prepared for administration at 0.5 μg/kg/min was subcutaneously implanted into each mouse in the BNP group, and an osmotic pump containing hCNP-22 prepared for administration at 2.5 μg/kg/min was subcutaneously implanted into each mouse in the CNP group. To the mice in the sildenafil group, sildenafil citrate at a dosage of 20 mg/kg was intraperitoneally administered once daily. […]

CCCc1nn(C)c2c(=O)[nH]c(-c3cc(S(=O)(=O)N4CCN(C)CC4)ccc3OCC)nc12 [sildenafil, sildenafil citrate]
lung metastasis of melanoma (number of nodules): significantly suppressed
